Laboratory results published in PMC2765639 (PLoS Neglected Tropical Diseases, 2009).
Where two headings read alike, the source gives them in different places.

Key:
L. major promastigotes [1] = assay: Flow cytometer-based growth inhibition and cytotoxicity assay; settings: Leishmania major, 48 h, read-out: L. major promastigote EC50 (AVE±SD) Confirmation Flow Cytometry
A549 = assay: Mammalian cell line specificity assay (alamar blue); format: cell-based; settings: Homo sapiens
Method: (§1) Mammalian cells were cultured and maintained according to ATCC specifications (ATCC, Manassas, VA). Cell line drug susceptibility assays were performed in final volumes of 25 µL using our previously described 384-well microtiter plate format,[39]. Briefly, for automated HTS procedures, cells (A549, IMR-90 and, HeLa, 1,000 cells; PC-3, 750 cells and; MDA-MB-231, 3,000 cells) in complete culture medium were seeded into each well of 384-well microtiter plates using a Titertek MAPC-2 bulk dispenser. Test and control compounds were added to individual wells as described above. Vehicle and positive controls were 1% DMSO and 10% DMSO, respectively (final well concentrations). Assay plates were incubated for 44–46 h at 37°C in the presence of 5% CO2 and growth inhibitory effects were determined as described above. Five µL of alamar blue reagent was added to each well and incubated for 2–4 h. Data were captured as described above.

MDA-MB-231 = assay: as above; format: cell-based; settings: Homo sapiens, 44–46 h, read-out: MDA EC50 (AVE±SD)
Method: as §1

PC-3 = assay: as above; format: cell-based; settings: Homo sapiens, 44–46 h, read-out: PC-3 EC50 (AVE±SD)
Method: as §1

IMR-90 = assay: as above; format: cell-based; settings: Homo sapiens, 44–46 h, read-out: IMR90 EC50 (AVE±SD)
Method: as §1

HeLa = assay: as above; format: cell-based; settings: Homo sapiens, 44–46 h, read-out: HeLa EC50 (AVE±SD)
Method: as §1

L. major promastigotes [2] = assay: L. major promastigote drug susceptibility assay (alamar blue, 384-well); format: cell-based; settings: Leishmania major
Method: Promastigotes were grown in vented T75 tissue culture flasks and maintained at 28°C. Promastigote cultures were initiated at 10^5 parasites per mL and subcultured every 3–4 days. L. major promastigote counts were performed in duplicate using a hemocytometer and particle counter (Beckman Coulter, Fullerton, CA). For HTS assays, L. major promastigote cultures were harvested during exponential growth phase (∼2.0–3.0×10^7 parasites/mL) and were not maintained past passage 20.
The final test compound concentration was 10 µM with a constant DMSO concentration of 1% in each assay well.
The L. major promastigote drug susceptibility assay was performed in a final volume of 25 µL using our previously described 384-well microtiter plate format,[39]. For automated HTS procedures, L. major promastigotes (5,000 parasites/22 µL) in complete growth medium were seeded into each well of the microtiter plates using a MAPC2 bulk dispenser (Titertek, Huntsville, AL). Test and control compounds (3 µL) were added to individual wells using a Velocity 11 V-prep (Menlo Park, CA) liquid handling system, equipped with a 384-well dispensing head, followed by centrifugation at 50 g for 1 min. […] Assay plates were allowed to incubate for 44 h at 28°C in the presence of 5% CO2. Five µL of alamar blue reagent were added to each assay plate well and incubated for 4 h at 28°C with 5% CO2. […]

[3] = test system: L. major axenic amastigote-like population; assay: L. major axenic amastigote-like alamar blue assay (pH 4.9); format: cell-based; settings: Leishmania major; pH 4.9, 144 h, 32°C; read-out: L. major axenic amastigote-like EC50 (AVE±SD) Confirmation Alamar Blue

SMILES: Clc1ccccc1C(c1ccccc1)(c1ccccc1)n1ccnc1 [Clotrimazole, reference compound]
- EC50 (L. major promastigotes [1]): 290 ± 120 nM
- EC50 (A549; 44–46 h, alamar blue, read-out: A549 EC50 (AVE±SD)): > 50000 nM
- EC50 (A549; Table S1, PMLSC library samples, read-out: EC50 Ave ± SD, A549): > 5000 nM
- EC50 (MDA-MB-231): > 50000 nM
- EC50 (PC-3): > 50000 nM
- EC50 (IMR-90): > 50000 nM
- EC50 (HeLa): > 50000 nM
- EC50 (L. major promastigotes [2]; 48 h, compounds from commercial supplier, 44 h + 4 h alamar blue, 28°C, read-out: L. major promastigote EC50 (AVE±SD) Confirmation Alamar Blue): 220 ± 110 nM
- EC50 (L. major promastigotes [2]; Table S1, PMLSC library samples, 10-point 0.01–5.00 µM, read-out: EC50 Ave ± SD, Lm): 147 ± 30 nM
- EC50 [3]: 750 ± 200 nM
